PubChem BioAssay AID1259425, University of Nebraska Medical Center | 2018

Assay: 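Find knockdowns that reproduce the gene expression pattern seen when KSR1 is lost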 (primary screen)
Cell system: HCT116 human colon cancer cells
Reagent: siRNA pool against human genes, 50 nM siRNA
Measurement: 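After 50 nM siRNA pool, branched-DNA assay measures six marker transcripts per well, minus blank, normalised to the geometric mean of two housekeeping transcripts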
Direction: BNIP3L mRNA: higher = more BNIP3L transcript after knockdown
Here is a random part of about 14,000 deposited reagents. Not all columns of the deposit are shown. Reagent sequences are not shown. Not given: the time to read-out.

| Target gene | BNIP3L mRNA, set 1 |
| --- | --- |
| HDAC6 (histone deacetylase 6) | 0.111 |
| DLX2 (distal-less homeobox 2) | 0.143 |
| REM1 (RRAD and GEM like GTPase 1) | 0.0872 |
| HIRIP3 (HIRA interacting protein 3) | 0.198 |
| NT5DC2 (5'-nucleotidase domain containing 2) | 0.216 |
| EP300 (EP300 lysine acetyltransferase) | 0.0464 |
| PCTP (phosphatidylcholine transfer protein) | 0.146 |
| ACP5 (acid phosphatase 5, tartrate resistant) | 0.0592 |
| PBX1 (PBX homeobox 1) | 0.0327 |
| TAF15 (TATA-box binding protein associated factor 15) | 0.113 |
| BTK (Bruton tyrosine kinase) | 0.113 |
| ABHD4 (abhydrolase domain containing 4, N-acyl phospholipase B) | 0.101 |
| EIF2B5 (eukaryotic translation initiation factor 2B subunit epsilon) | 0.0512 |
| CDS2 (CDP-diacylglycerol synthase 2) | 0.059 |
| RMP24 (ribonuclease MRP subunit p24) | 0.214 |
| FRAS1 (Fraser extracellular matrix complex subunit 1) | 0.132 |
| SNRPD2 (small nuclear ribonucleoprotein D2 polypeptide) | 0.134 |
| MINDY1 (MINDY lysine 48 deubiquitinase 1) | 0.0793 |
| PIK3R4 (phosphoinositide-3-kinase regulatory subunit 4) | 0.23 |
| NDST1 (N-deacetylase and N-sulfotransferase 1) | 0.151 |

Look-ups from above.
EIF2B5 (eukaryotic translation initiation factor 2B subunit epsilon), BNIP3L mRNA, set 1 → 0.0512
Under “BNIP3L mRNA, set 1”, NDST1 (N-deacetylase and N-sulfotransferase 1) shows 0.151
